Measurements from PMC10163288.
The other results are listed elsewhere or left out.

B1: il2ra_site2_2erj_normal_mot_HHH_b1_05204_000000055_0001_1_15_H_._HHH_b2_05523_0001_0000100001_0000001_0 (protein)
chain: SSSSDEEEEEAKRLLEELKRALEEGNFALFVEIAARITLIILELGDEELARLLDELFRELESSSS
B2: il2ra_site1_1z92_normal_mot_HHH_b1_00097_000000153_0001_1_19_H_._HHH_b1_06833_af2_0002_0000100002_0000001_0 (protein)
chain: SSSSDLRRLKFVNEVVVELAEEFGLSEEQDRELLRLAARLLNRGYSPEEIEELLRELAERLSSSS
B3: il2ra_site1_2b5i_sap_13_mot_HHH_b2_04463_af2_000000056_0001_43_55_H_._HHH_b2_08206_af2_0001_0000100008_0000001_0_0001 (protein)
chain: SSSSSSREVLELFHEAHELAREGDEEKAREVLEEAEELAEREGSPNVLRMVRAALRASNSSSSSS
B4: il2ra_site1_3nfp_sap_12_mot_HHH_b2_06110_000000263_0001_43_57_H_._HHH_b2_06718_0001_0001000039_0000001_0_0001_af2pred_0001_af2pred (protein)
chain: TEALVILLRFREEKTGDPEEAVRLVVKLIEEHLRVPPEEAAEFLREALEKVDEELAEKVEELLRK
B5: il2ra_site2_3nfp_normal_mot_HHH_b1_07095_000000265_0001_1_20_H_._HHH_b1_05163_0001_0000400031_0000001_0 (protein)
chain: SSSSDEFEELEERIRRAIEEGDEELVRELLRRISQLAFEKRNFELFAIVNELMELLLELESSSSS
B6: il2ra_site1_2b5i_sap_7_mot_HHH_b1_01346_af2_000000027_0001_1_20_H_._HHH_b2_04126_af2_0001_0000100001_0000001_0_0001 (protein)
chain: SSSSDEADEQLEELFHEASRLYRNGNPEEARRVLEEAIELAEELGNPSDLKDLRRFLELLKSSSS
B7: il2ra_site1_1z92_normal_mot_HHH_b1_05862_af2_000000270_0001_22_38_H_._HHH_b1_00145_0001_0000200011_0000001_0 (protein)
chain: SSSSDRAEEWAFKLAELVLERYERVGDPKAREQVEFLIEDLELLGNPELAEELEEILERIDSSSS
B8: il2ra_site2_2erj_normal_mot_HHH_b2_06005_000000006_0001_1_15_H_._HHH_b2_03858_0001_0000100005_0000001_0 (protein)
chain: SSSSDEEEIEERIEELLEEARKIPDPREAERLVREAFELAYRLNDPRLALEVMRVAEELFSSSSS
B9: il2ra_site2_3nfp_sap_22_mot_HHH_b1_03540_000000074_0001_22_39_H_._3041c9cb0459c08fbffb1fc7c11e07cd_0001_af2_0001_0000800023_0000001_0_0001 (protein)
chain: GPVEETIKEAIERGDPEYATDVLAALIIIVRAWGDPALEEHLEEAEELVEELDPEVLRLAEERAN
B10: il2ra_site2_3nfp_sap_25_mot_HHH_b2_07186_000000286_0001_42_55_H_._HHH_b2_06885_0001_0000200024_0000001_0_0001 (protein)
chain: SSSSDEEEAEELLRQLERALEEGDEELFRELAQRVSHLVFKLGDHELFAKLAELLYRFQSLSSSS
B11: il2ra_site1_1z92_normal_mot_HHH_b2_07193_000000005_0001_24_40_H_._66959ead3e6c57cb3ef8243f3eb758e0_0001_1_af2_0001_0000300033_0000001_0_af2pred_dldesign_0_af2pr … (protein)
chain: SQAEQELRDAVESEDEAALREFLATLLKDTGNPELAEQFLRYLVKRLGLPEEVLERLRALLEELA
B12: il2ra_site1_1z92_sap_15_mot_HHH_b1_01245_000000029_0001_23_39_H_._HHH_b2_06256_af2_0001_0000200020_0000001_0_0001_af2pred_0001_af2pred (protein)
chain: SHAEKFIREMLERKLKKDVEAAAKLLLKSARSARDPERAEAAEEALELVKRDPEEAERLIRELLK
B13: il2ra_site2_3nfp_normal_mot_HHH_b1_01086_000000225_0001_20_36_H_._HHH_b1_05415_0001_0000400024_0000001_0_af2pred_0001_af2pred (protein)
chain: SSSSSDELEEEVEELLEQAKRIPDPFERFAALAEAAALVIENNNEELEELVKKVSRELQSSSSSS
B14: il2ra_site1_2b5i_sap_11_mot_HHH_b1_06900_af2_000000048_0001_21_36_H_._a1725d017d863e7f4c76c21e96fab134_0001_1_af2_0001_0000100009_0000001_0_0001_af2pred_0001_af … (protein)
chain: SSSSSTLAQKAAELLEEANEADRNGDPEEARKLLEEAEKIAEEAGSKSLLRSIRVALEQLSSSSS
B15: il2ra_site2_2erj_sap_24_mot_HHH_eva_0385_af2_000000151_0001_25_42_H_._HHH_b1_07782_af2_0001_0000100008_0000001_0_0001 (protein)
chain: SSSSDERLRELYELAARLTRAIFEGDEELIRELAEEIRRIIEEAKSENAREILEALERRGSSSSS
B16: il2ra_site1_1z92_normal_mot_HHH_b2_04375_000000267_0001_42_56_H_._HHH_b2_00211_af2_0001_0000200032_0000001_0 (protein)
chain: SSSDEEELEEFAEKVVRRLVEELGLSEHTEEALRKDAELLIRLGFSEKAIKIALESNARLASSSS
B17: il2ra_site2_3nfp_sap_17_mot_73f63e3ba0c5fbd29b02c38bc3203c89_0001_1_000000101_0001_17_33_H_._HHH_b1_05402_0001_0000200013_0000001_0_0001_af2pred_0001_1_af2pred_ … (protein)
chain: SSSSSLEEVVERAKELAKEVTDRRVRFELRALAFQLELTGDPKLEELLEKLIRLVEEALKGSSSS
B18: il2ra_site2_2erj_sap_22_mot_HHH_b1_04560_000000168_0001_43_57_H_._HHH_b2_07495_0001_0000400017_0000001_0_0001_af2pred_0001_1_af2pred_swapped (protein)
chain: SSSDEEVEERLERLLEELVKELNLSETAELLLKLLVETLLKLGASEEEAKRQVELSARNLAESSS
B19: il2ra_site1_2b5i_normal_mot_571275078a2094b209398d2bd903418f_0001_1_af2_000000140_0001_35_48_H_._f5ff40796168375b462bec8614a1db4a_0001_1_0001_0000200012_0000001 … (protein)
chain: SRRYTEELRQLIEELGDPEEAVEILKRELEKLGHSPEAVLRFIALALSKVGDPELARRILEELKR
B20: il2ra_site1_1z92_normal_mot_01209686ea234b34325f918445e6eade_0001_af2_000000154_0001_18_33_H_._HHH_b1_05532_af2_0001_0000400046_0000001_0_af2pred_0001_af2pred_s … (protein)
chain: SSSSDEEEEAQRLAEEIAEELGLSEEDRKALERDAEAAFKMGFSPEKIERALRRLVKLFLSSSSS
B21: il2ra_site1_1z92_sap_14_mot_HHH_b2_04375_000000267_0001_42_56_H_._HHH_b1_00305_0001_0000100012_0000001_0_0001_af2pred_dldesign_0_af2pred (protein)
chain: SSSSSDPDALDDKVYELFLKTYHVDKEEREKLLEEAIKLAKEAGFEKIVKELEEYKKLLSSSSSS
B22: il2ra_site1_1z92_normal_mot_HHH_b1_03515_000000289_0001_1_19_H_._HHH_b1_05136_0001_0000200025_0000001_0 (protein)
chain: SSSSSQEEKLAKAIVRVLVQAAGLSEEQKRELEELAEKLVEEGVDPLEIIKILDRLAAELGSSSS
B23: il2ra_site2_3nfp_sap_16_mot_HHH_b2_07186_000000286_0001_42_55_H_._HHH_b2_00168_0001_0000100004_0000001_0_0001 (protein)
chain: SSSSDYEEKIKELEREAEELEEEGNPEEAYRVIAKAAVIAWENNDTETYMKLAELAFEIAQSSSS
B24: il2ra_site2_3nfp_sap_20_mot_HHH_b1_07114_000000063_0001_43_53_H_._2fddaf487ee4b636a798e6d487813806_0001_0001_0000400018_0000001_0_0001 (protein)
chain: SSSSDSERYIEALLRLVKEILEQGNEELARKVLRIAIRMARLAGNEEVLEALERLLEELNSSSSS
B25: il2ra_site2_2erj_sap_19_mot_HHH_b1_08402_000000025_0001_43_54_H_._HHH_b2_00293_af2_0001_0000900015_0000001_0_0001 (protein)
chain: SSSSNEELRELYELANALMHLLHNNDEEEFEKVSERVRELAERLNSENVEEMLRLMERKISSSSS
B26: il2ra_site2_3nfp_normal_mot_HHH_b1_00660_af2_000000090_0001_40_57_H_._HHH_b1_07775_af2_0001_0000100002_0000001_1 (protein)
chain: SSSSDEELEEEVEKLLEEAKKIEDKFEAFALVLRAREIAERLGDEELKQLVARVALEIYESSSSS
B27: il2ra_site2_3nfp_normal_mot_HHH_b2_06150_000000217_0001_39_53_H_._HHH_b1_05337_0001_0000100005_0000001_0 (protein)
chain: SSSSDEEVRELLEQLRELAEEGDEERFREVARRISQLIYELGDSELFFELAEILYLFERVSSSSS
B28: il2ra_site1_3nfp_normal_mot_HHH_b1_05070_af2_000000282_0001_43_57_H_._HHH_b1_05642_af2_0001_0000500010_0000001_0_af2pred_0001_af2pred_1_swapped (protein)
chain: SSSSSLAEEFQRIAEEIRELLRHDNREEAEKLLEELRELAEELNSPVVRIFVKLMEKRVRSSSSS
B29: il2ra_site1_3nfp_normal_mot_HHH_b2_07414_af2_000000178_0001_43_56_H_._HHH_b1_03130_af2_0001_0000200029_0000001_0_af2pred_0001_af2pred_swapped (protein)
chain: SSSSSDEAREILLKALRLLFEGNFEEAEELLEEAERIAEEAGDERLLRLIRFELRAVKRKSSSSS
B30: il2ra_site1_1z92_normal_mot_HHH_b2_05038_af2_000000006_0001_39_52_H_._HHH_b2_01116_af2_0001_0000100007_0000001_0 (protein)
chain: SSSSSDEKERALELAAEALRAFFNGDREEAEEILEEALKLAREANDPHLERIIEEYLEFVSSSSS
B31: il2ra_site1_2b5i_normal_mot_f5ff40796168375b462bec8614a1db4a_0001_1_000000138_0001_53_65_H_._HHH_b2_06077_af2_0001_0000100001_0000001_0_af2pred_dldesign_0_af2pr … (protein)
chain: SSSSDRKELVEELLEEADRLRERGELERARKLLKLALKAARLTKDPELVAEVEARLAALGSSSSS
B32: il2ra_site1_1z92_normal_mot_HHH_b2_01902_af2_000000252_0001_25_40_H_._HHH_b1_05395_0001_0000300030_0000001_0_af2pred_0001_af2pred (protein)
chain: SSSSDELEKRARLFVRSLVRMAGLSEEQQEELEELAEELLRRGYDFEEIRRLLDELALKLSSSSS
B33: il2ra_site2_2erj_sap_13_mot_HHH_b1_06160_000000008_0001_39_56_H_._HHH_b2_04163_0001_0000800021_0000001_0_0001 (protein)
chain: SSSSSDAREVAELLARVIEVLKEGDEERVEELLEEARRLAEELNNPFLQRYVELVLREINSSSSS
B34: il2ra_site1_1z92_sap_17_mot_HHH_b1_08214_000000261_0001_20_36_H_._ems_3hM_1640_0001_0000200028_0000001_0_0001 (protein)
chain: DLEEELERLLKELGVPPEEVEAFLRDLERSAKFFGDPENAAKALIQVLKRWGDPEAAELLEELLK
B35: il2ra_site2_2erj_sap_25_mot_ca9fcc9ace360711d783d1260e4fbff1_0001_1_af2_000000007_0001_15_32_H_._HHH_b2_01612_0001_0000100002_0000001_0_0001 (protein)
chain: SSSSSDLQEVYERVAEILAEAAHIKDEEEAREVAEEAVRLAREAGNEAAARYAELLLEELSSSSS
B36: il2ra_site2_3nfp_normal_mot_HHH_b2_07946_000000046_0001_20_36_H_._de103a6a2759fb2eb67fe2c7ae4a7c2b_0001_0001_0000400018_0000001_0_af2pred_0001_af2pred (protein)
chain: SRVIEAIRILEELGDPEAAILLFALRAEVLNKGDPKLEELLEEVLRLVEEGDPEQARRLLEEIHS
B37: il2ra_site1_1z92_sap_22_mot_HHH_b2_00494_000000030_0001_41_54_H_._HHH_b1_05523_af2_0001_0000500020_0000001_0_0001_af2pred_dldesign_0_af2pred (protein)
chain: SQAEQELRDAVDSEDEEALREFLEILLRDTGDPERARQFLRVLVKRLGLPEEVLERLEALLDELA

Target: il2ra, P01589
Assay: yeast display titration

Apparent Kd, inactive:
B1 no binding seen
B2 no binding seen
B3 no binding seen
B4 no binding seen
B5 no binding seen
B6 no binding seen
B7 no binding seen
B8 no binding seen
B9 no binding seen
B10 no binding seen
B11 no binding seen
B12 no binding seen
B13 no binding seen
B14 no binding seen
B15 no binding seen
B16 no binding seen
B17 no binding seen
B18 no binding seen
B19 no binding seen
B20 no binding seen
B21 no binding seen
B22 no binding seen
B23 no binding seen
B24 no binding seen
B25 no binding seen
B26 no binding seen
B27 no binding seen
B28 no binding seen
B29 no binding seen
B30 no binding seen
B31 no binding seen
B32 no binding seen
B33 no binding seen
B34 no binding seen
B35 no binding seen
B36 no binding seen
B37 no binding seen

A stretch taken from the entries so far, for reference:
Apparent Kd, inactive:
B28 no binding seen
B29 no binding seen
B30 no binding seen
